Source: the supplement of paper PMC10849652
Some of the results follow.

The chains behind the UniProt entries cited, without tags or fusion partners. Where a name states a change or a piece, a line headed by the entry shows the natural chain unless it says otherwise.
UniProt Q8WYA6: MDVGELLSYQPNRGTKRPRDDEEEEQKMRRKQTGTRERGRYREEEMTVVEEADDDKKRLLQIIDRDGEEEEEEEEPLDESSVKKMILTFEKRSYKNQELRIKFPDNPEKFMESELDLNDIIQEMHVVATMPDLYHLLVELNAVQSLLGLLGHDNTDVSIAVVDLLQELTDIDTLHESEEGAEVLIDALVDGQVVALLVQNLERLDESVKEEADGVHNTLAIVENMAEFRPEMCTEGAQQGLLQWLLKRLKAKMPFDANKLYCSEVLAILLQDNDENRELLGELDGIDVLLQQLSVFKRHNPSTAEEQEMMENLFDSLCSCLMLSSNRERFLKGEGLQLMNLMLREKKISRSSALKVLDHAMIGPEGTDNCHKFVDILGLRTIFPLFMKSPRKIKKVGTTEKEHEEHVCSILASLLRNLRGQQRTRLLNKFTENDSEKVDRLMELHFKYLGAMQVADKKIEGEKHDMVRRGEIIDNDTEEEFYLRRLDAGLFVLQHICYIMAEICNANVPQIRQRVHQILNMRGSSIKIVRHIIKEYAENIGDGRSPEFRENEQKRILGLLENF
UniProt P25774, whole entry, looked up: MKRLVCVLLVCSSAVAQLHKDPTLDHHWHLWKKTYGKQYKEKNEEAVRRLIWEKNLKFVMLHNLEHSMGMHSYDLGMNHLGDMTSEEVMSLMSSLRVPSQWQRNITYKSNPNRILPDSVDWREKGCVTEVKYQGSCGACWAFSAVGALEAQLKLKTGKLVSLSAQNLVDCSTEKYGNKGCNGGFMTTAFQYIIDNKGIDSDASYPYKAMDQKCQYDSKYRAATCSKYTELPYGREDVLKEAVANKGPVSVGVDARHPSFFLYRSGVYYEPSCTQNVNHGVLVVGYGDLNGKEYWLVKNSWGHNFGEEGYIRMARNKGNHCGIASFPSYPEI
UniProt Q8IZD4: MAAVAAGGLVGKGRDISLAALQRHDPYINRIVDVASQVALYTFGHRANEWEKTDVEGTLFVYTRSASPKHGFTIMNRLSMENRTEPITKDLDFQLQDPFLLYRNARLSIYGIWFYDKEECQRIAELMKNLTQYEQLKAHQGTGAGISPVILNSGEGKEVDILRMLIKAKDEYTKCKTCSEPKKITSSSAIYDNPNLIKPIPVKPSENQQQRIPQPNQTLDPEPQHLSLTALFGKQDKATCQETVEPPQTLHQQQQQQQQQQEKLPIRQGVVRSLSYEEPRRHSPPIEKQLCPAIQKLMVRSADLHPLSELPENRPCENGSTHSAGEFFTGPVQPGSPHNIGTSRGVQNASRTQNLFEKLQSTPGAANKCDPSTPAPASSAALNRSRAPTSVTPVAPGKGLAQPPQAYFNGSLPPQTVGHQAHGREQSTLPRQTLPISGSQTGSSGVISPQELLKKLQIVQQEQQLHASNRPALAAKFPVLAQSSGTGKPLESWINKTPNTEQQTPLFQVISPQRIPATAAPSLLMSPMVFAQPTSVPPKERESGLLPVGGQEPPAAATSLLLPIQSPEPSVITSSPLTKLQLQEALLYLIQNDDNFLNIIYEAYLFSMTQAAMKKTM
UniProt Q07973: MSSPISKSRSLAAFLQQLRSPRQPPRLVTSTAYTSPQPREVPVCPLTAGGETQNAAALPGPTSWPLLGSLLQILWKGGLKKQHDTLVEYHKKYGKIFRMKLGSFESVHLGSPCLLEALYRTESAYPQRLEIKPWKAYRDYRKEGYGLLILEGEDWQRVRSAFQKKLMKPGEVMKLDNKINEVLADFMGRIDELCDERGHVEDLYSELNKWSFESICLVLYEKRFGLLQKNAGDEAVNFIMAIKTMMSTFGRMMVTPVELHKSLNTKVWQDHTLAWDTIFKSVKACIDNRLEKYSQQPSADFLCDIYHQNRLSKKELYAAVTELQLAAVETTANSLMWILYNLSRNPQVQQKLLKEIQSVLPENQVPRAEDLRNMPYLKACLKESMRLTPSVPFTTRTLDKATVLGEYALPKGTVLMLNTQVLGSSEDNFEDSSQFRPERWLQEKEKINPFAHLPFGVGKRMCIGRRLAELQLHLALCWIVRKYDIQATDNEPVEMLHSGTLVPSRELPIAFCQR
UniProt Q96SQ9: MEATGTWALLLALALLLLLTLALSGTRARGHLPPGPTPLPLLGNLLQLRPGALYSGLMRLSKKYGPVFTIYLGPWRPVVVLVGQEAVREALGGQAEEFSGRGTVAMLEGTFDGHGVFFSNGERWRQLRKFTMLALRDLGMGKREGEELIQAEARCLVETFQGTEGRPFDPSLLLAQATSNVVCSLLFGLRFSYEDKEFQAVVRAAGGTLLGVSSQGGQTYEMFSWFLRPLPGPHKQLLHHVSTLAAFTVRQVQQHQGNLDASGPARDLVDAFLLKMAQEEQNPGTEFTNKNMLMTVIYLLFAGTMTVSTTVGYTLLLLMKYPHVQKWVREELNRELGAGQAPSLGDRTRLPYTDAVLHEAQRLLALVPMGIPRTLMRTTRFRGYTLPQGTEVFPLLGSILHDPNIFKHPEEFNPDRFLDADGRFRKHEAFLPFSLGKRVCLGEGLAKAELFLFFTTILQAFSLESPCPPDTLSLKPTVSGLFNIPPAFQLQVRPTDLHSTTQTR
UniProt P00167, whole entry, looked up: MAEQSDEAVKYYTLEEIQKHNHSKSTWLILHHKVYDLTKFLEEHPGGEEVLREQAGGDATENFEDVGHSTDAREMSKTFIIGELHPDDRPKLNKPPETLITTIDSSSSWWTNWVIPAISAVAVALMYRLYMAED
UniProt Q9GZU7: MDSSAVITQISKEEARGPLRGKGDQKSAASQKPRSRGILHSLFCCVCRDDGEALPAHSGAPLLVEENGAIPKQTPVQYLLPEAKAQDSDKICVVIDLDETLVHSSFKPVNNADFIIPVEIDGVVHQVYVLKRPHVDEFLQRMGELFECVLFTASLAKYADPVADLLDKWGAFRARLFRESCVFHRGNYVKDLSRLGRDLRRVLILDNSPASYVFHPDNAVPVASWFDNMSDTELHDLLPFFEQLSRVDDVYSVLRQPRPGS
UniProt Q9BWK5: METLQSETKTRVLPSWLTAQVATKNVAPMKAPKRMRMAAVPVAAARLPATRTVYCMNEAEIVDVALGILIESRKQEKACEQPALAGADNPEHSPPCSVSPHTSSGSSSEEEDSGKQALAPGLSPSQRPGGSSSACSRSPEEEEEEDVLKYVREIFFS
UniProt O60931: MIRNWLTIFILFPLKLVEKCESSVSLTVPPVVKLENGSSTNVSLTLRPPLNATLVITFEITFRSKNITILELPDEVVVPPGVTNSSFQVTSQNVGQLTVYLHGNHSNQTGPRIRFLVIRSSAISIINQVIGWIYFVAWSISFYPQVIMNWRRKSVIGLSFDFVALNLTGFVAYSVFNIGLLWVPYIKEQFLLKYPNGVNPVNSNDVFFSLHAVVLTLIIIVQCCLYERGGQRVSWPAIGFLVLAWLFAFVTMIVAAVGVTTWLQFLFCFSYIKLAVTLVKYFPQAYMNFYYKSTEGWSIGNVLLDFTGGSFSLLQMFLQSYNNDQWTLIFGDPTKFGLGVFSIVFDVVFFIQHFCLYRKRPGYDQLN
UniProt Q9P0U4, whole entry, looked up: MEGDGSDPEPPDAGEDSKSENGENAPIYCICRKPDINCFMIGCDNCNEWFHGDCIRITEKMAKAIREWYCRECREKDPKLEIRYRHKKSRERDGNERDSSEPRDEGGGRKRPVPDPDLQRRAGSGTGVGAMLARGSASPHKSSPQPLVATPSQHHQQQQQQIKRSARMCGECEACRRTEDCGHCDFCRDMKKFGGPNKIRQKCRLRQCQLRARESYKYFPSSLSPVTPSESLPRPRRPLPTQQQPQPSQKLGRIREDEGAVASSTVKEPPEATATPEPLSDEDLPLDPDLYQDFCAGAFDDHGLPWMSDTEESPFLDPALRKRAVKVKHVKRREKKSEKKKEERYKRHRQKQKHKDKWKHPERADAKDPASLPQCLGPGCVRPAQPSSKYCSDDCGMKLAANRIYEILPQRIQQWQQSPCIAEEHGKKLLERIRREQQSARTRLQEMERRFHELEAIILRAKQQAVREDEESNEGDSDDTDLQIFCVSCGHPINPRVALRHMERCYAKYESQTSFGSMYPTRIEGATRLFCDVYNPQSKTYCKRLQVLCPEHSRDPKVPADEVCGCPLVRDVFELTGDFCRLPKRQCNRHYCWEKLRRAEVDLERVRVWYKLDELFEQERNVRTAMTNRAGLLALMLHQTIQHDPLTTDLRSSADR
UniProt Q5H9S7: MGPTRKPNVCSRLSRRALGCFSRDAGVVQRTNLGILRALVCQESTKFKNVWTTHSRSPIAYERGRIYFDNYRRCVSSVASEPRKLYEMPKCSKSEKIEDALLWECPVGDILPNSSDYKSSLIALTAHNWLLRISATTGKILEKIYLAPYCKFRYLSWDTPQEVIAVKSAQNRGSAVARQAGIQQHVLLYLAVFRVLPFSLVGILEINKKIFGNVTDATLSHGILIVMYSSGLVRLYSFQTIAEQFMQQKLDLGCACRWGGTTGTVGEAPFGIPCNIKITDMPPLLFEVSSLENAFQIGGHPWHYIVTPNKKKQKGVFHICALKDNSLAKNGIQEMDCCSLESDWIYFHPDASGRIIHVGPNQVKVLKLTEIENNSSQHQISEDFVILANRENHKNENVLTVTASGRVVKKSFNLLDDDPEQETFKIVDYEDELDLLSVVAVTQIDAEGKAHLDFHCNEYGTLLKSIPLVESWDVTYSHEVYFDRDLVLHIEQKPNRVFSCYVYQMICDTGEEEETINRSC
UniProt P01037: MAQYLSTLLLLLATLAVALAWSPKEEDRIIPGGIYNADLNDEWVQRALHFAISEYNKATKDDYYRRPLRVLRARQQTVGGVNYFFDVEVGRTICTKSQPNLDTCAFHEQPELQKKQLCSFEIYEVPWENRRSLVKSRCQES
UniProt Q9BTE7: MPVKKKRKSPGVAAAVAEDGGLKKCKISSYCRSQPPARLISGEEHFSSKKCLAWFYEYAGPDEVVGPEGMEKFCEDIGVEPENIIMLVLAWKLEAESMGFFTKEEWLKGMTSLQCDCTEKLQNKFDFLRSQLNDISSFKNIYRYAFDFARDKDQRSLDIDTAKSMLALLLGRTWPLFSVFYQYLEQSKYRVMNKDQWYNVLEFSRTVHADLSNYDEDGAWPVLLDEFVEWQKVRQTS
UniProt Q9Y4D1, whole entry, looked up: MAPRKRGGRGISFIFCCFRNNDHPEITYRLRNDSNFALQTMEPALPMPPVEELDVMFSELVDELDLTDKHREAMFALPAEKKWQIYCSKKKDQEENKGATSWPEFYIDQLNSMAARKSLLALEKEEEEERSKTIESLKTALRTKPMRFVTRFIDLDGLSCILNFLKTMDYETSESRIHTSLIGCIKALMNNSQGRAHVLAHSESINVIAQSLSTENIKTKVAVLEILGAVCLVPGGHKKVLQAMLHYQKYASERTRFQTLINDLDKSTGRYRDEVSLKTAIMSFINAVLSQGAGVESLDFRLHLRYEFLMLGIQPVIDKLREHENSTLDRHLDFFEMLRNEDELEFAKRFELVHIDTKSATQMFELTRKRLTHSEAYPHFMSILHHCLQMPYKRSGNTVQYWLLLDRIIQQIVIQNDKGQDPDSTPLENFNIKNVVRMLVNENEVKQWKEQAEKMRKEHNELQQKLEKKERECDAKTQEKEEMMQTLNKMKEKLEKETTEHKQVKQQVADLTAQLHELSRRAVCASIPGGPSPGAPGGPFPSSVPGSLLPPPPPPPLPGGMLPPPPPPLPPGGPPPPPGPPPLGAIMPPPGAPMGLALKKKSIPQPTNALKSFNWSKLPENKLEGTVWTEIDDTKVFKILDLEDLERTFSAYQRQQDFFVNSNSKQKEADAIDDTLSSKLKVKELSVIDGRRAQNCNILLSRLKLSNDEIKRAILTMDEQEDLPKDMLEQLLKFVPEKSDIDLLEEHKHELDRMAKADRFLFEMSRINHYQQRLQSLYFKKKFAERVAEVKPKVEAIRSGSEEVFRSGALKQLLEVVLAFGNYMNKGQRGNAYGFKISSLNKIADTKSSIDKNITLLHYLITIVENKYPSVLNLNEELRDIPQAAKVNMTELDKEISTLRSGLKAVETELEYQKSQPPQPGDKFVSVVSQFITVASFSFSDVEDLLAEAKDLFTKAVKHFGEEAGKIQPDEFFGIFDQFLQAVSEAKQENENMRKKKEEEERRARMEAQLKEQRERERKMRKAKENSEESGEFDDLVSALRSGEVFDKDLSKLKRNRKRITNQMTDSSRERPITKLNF
UniProt Q9UJU6: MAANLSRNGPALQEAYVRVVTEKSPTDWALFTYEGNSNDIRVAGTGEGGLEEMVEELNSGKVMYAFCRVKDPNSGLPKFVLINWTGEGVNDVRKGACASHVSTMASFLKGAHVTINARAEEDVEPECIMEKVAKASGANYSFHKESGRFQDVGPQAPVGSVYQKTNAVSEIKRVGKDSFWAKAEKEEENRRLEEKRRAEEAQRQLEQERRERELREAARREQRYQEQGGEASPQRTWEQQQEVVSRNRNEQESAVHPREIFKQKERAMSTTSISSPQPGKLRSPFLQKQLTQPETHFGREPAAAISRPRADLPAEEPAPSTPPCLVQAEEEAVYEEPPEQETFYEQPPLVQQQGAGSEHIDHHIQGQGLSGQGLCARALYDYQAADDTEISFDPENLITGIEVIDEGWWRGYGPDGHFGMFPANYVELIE

Key:
Assay in all cases: log2 fold change, soluble protein after heating vs DMSO (PISA); higher = thermal stabilisation; K562 cells, 10 uM, 30 min; active = over 0.2 and 3.5 SD of the protein, either way, in both replicates (recomputed)
[1] = compound: CC1=C(SC2=C1C(=N[C@H](C3=NN=C(N32)C)CC(=O)N)C4=CC=C(C=C4)Cl)C
How it was run: (§1)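 Aliquots of K562 cells (2×10^6 cells/mL) treated with 10 μM compound for 30 min were heated for 3 min over 48°C-58°C. After pooling and extraction in PBS with 0.5% NP-40 at 4°C, soluble protein from a 21,000xg, 90 min spin was quantified by TMTpro 16plex LC-MS/MS with channel sums equalised. Thermal stability is expressed against control samples, from duplicates, as a log2 fold change.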

[2] = compound: Cc1sc2c(c1C)C(c1ccc(Cl)cc1)=N[C@@H](CC(=O)OC(C)(C)C)c1nnc(C)n1-2
How it was run: as §1

[3] = compound: c1ccc([C@@H]2C[C@H]2NC2CCNCC2)cc1
How it was run: as §1

[4] = compound: C1=CC=C(C=C1)[C@H](COC2=CC3=C(C=C2)NC(=O)N3)NC(=O)C4=CC=CN(C4=O)CC5=CC(=C(C=C5)F)F
How it was run: as §1

[5] = compound: CC1=C2C(=CC=C1)N=C(N(C2=O)C3=CC=CC=C3C)CN4C=NC5=C(N=CN=C54)N
How it was run: as §1

CWF19L2 (UniProt Q2TBE0)
log2 fold change [1]: inactive: -0.169
log2 fold change [2]: inactive: 0.028
log2 fold change [3]: inactive: 0.135

CTNNBL1 (UniProt Q8WYA6)
log2 fold change [4]: inactive: 0.029
log2 fold change [5]: inactive: 0.17

CTSS (UniProt P25774)
log2 fold change [1]: inactive: -0.004
log2 fold change [5]: inactive: -0.033
log2 fold change [2]: inactive: -0.192
log2 fold change [3]: inactive: 0.037

CYP2R1 (UniProt Q6VVX0)
log2 fold change [4]: inactive: 0.068
log2 fold change [1]: inactive: -0.01
log2 fold change [2]: inactive: 0.055
log2 fold change [3]: inactive: -0.134

DCP1B (UniProt Q8IZD4)
log2 fold change [4]: inactive: 0.048
log2 fold change [2]: inactive: 0.061

CYP24A1 (UniProt Q07973)
log2 fold change [4]: inactive: 0.17
log2 fold change [5]: inactive: -0.175
log2 fold change [2]: inactive: 0.266

CYP2S1 isoform 2 (UniProt Q96SQ9)
log2 fold change [4]: inactive: 0.111
log2 fold change [1]: inactive: 0.145
log2 fold change [3]: inactive: -0.132

DCP2 (UniProt Q8IU60)
log2 fold change [1]: inactive: -0.121
log2 fold change [5]: inactive: -0.044
log2 fold change [2]: inactive: 0.077
log2 fold change [3]: inactive: 0.068

CYSTM1 (UniProt Q9H1C7)
log2 fold change [4]: inactive: 0
log2 fold change [1]: inactive: -0.132
log2 fold change [5]: inactive: -0.121
log2 fold change [2]: inactive: 0.103
log2 fold change [3]: inactive: 0

CYTH1 (UniProt Q15438)
log2 fold change [5]: inactive: 0.236
log2 fold change [2]: inactive: 0.115

CYB5A (UniProt P00167)
log2 fold change [4]: inactive: 0.015
log2 fold change [5]: inactive: 0.026

CYP4V2 (UniProt Q6ZWL3)
log2 fold change [1]: inactive: 0.063
log2 fold change [5]: inactive: 0.059
log2 fold change [3]: inactive: -0.027

CUL7 isoform 2 (UniProt Q14999)
log2 fold change [2]: inactive: 0.107

CTDSP1 (UniProt Q9GZU7)
log2 fold change [5]: inactive: -0.114
log2 fold change [2]: inactive: -0.065

CYREN (UniProt Q9BWK5)
log2 fold change [5]: inactive: -0.008

DCUN1D4 isoform 3 (UniProt Q92564)
log2 fold change [1]: inactive: 0.08
log2 fold change [5]: inactive: 0.107
log2 fold change [2]: inactive: 0.006
log2 fold change [3]: inactive: 0.013

CTNS isoform 2 (UniProt O60931)
log2 fold change [1]: inactive: 0.108
log2 fold change [5]: inactive: -0.048
log2 fold change [3]: inactive: -0.061

CXXC1 isoform 2 (UniProt Q9P0U4)
log2 fold change [1]: inactive: -0.014
log2 fold change [5]: inactive: 0.221
log2 fold change [2]: inactive: 0.049
log2 fold change [3]: inactive: 0.057

CSRP2 (UniProt Q16527)
log2 fold change [1]: inactive: -0.187
log2 fold change [5]: inactive: -0.012
log2 fold change [2]: inactive: 0.087
log2 fold change [3]: inactive: 0.092

CTDP1 (UniProt Q9Y5B0)
log2 fold change [1]: inactive: -0.116
log2 fold change [2]: inactive: 0.151
log2 fold change [3]: inactive: 0.072

DCAF17 (UniProt Q5H9S7)
log2 fold change [5]: inactive: -0.041

CST1 (UniProt P01037)
log2 fold change [4]: inactive: 0.174
log2 fold change [5]: inactive: 0.027

CWC25 (UniProt Q9NXE8)
log2 fold change [4]: inactive: -0.017
log2 fold change [1]: inactive: -0.297
log2 fold change [2]: inactive: 0.198
log2 fold change [3]: inactive: 0.125

DCUN1D5 (UniProt Q9BTE7)
log2 fold change [5]: inactive: 0.077
log2 fold change [2]: inactive: -0.261

DAAM1 (UniProt Q9Y4D1)
log2 fold change [1]: inactive: -0.37
log2 fold change [3]: inactive: 0.259

CYBRD1 (UniProt Q53TN4)
log2 fold change [1]: inactive: -0.064
log2 fold change [5]: inactive: -0.012
log2 fold change [3]: inactive: 0.007

CYREN isoform 4 (UniProt Q9BWK5)
log2 fold change [4]: inactive: 0.347
log2 fold change [5]: inactive: 0.052

DBNL (UniProt Q9UJU6)
log2 fold change [1]: inactive: -0.04
log2 fold change [3]: inactive: -0.099

CTDSPL2 (UniProt Q05D32)
log2 fold change [1]: inactive: 0.499
log2 fold change [3]: inactive: -0.142
